The values below come from the supplement of paper PMC7024190.

The list shows a part of the results. Repeats in this data set agree poorly, so a single value says little.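 The cells were human embryonic kidney cells carrying a Renilla luciferase gene, driven by the HSV-TK promoter, on a plasmid put in briefly by transfection. This is the first-round screen of about ten thousand compounds, looking for ones that raise reporter output.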

The subject of the test is HEK 293FT. Briefly: log relative Renilla luciferase luminescence (reporter expression vs reference, reference not stated) (log (base not stated)); higher = higher recombinant reporter expression. To be noted: 10 µM; time after transfection 48 h. Here is the method: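 HEK 293FT cells transiently transfected with pRL-TK (Renilla luciferase) were treated with compounds at 10 uM and luminescence was read about 42 h later. Values are log relative Renilla luminescence (log base and reference not stated). Single-pass screen; ICCB Known Bioactives library.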
In the case of `CC(=O)C1=C(O)[C@@H]2[C@H]3c4c[nH]c5cccc(c45)C[C@H]3C(C)(C)N2C1=O` [Cyclopiazonic acid], the log came out at 0.104.

Take `NC1CCc2cc(O)c(O)cc2C1` (stereo not given): the log is -0.25. The value for `CCOC(=O)CN1C(=O)CC(C[C@@H](O)C2C[C@@H](C)C[C@H](C)C2=O)CC1=O` (stereo not given in full) [Cycloheximide-N-ethylethanoate] was -0.242.

In the case of `C/C1=C/C(=O)O[C@@H]2C[C@@H](CC[C@H](C)/C=C\CC1)O[C@@](O)([C@@H]1CSC(=O)N1)C2` [Latrunculin B], the log was determined as 0.311. For `CCCC[C@H]1C(=O)O[C@H](C)[C@H](NC(=O)c2cccc(NC=O)c2OC)C(=O)O[C@@H](C)[C@@H]1OC(=O)CC(C)C` [2-Methoxyantimycin A3] the value was -0.136; for `CCCCCCCCCCCCCCCCOC[C@H](COP(=O)([O-])OCC[N+](C)(C)C)OC(C)=O`, -0.129; for `COc1ccc(C(=O)O[C@H]2CC[C@@]3(C)[C@@H]4CC[C@H]5[C@]6(O)C[C@H](O)[C@@]7(O)[C@@H](CN8C[C@@H](C)CC[C@H]8[C@@]7(C)O)[C@]6(O)C[C@@]53O[C@]24O)cc1OC` [Veratridine], 0.192. The value for `CC[C@@]1([C@@H]2O[C@@H]([C@H]3O[C@@](O)(CO)[C@H](C)C[C@@H]3C)C[C@@H]2C)CC[C@H]([C@]2(C)CC[C@]3(C[C@H](O)[C@@H](C)[C@@H]([C@@H](C)[C@@H](OC)[C@H](C)C(=O)O)O3)O2)O1` [Monensin] was -0.479; that for `CC[C@@H]1/C=C/C=C/C[C@H](C)[C@H](O)[C@](C)(O)C(=O)[C@H](C)[C@@H](O)[C@H](C)C(=O)[C@H](C)[C@@H](O)[C@H](C)/C=C/C(=O)O[C@H]2[C@@H](C)[C@@H](CC1)O[C@@]1(CC[C@@H](C)[C@@H](C[C@H](C)O)O1)[C@@H]2C` [Oligomycin A] was -0.552. The value for `COC(=O)[C@@]1(O)C[C@H]2O[C@]1(C)n1c3ccccc3c3c4c(c5c6ccccc6n2c5c31)C(=O)NC4` was 0.251. For `CCCCC/C=C\C/C=C\C/C=C\C=C\[C@H](CCCC(=O)O)OO`, the log came out at 0.0437.

For `CC(=O)N[C@H]1[C@@H](O[C@@H]2O[C@H](CC(O)[C@H]3O[C@@H](n4ccc(=O)[nH]c4=O)[C@H](O)[C@@H]3O)[C@H](O)[C@H](O)[C@H]2NC(=O)/C=C/CC(C)C)O[C@H](CO)[C@@H](N)[C@@H]1O` (stereo not given in full) [Tunicamycin], the log stood at 0.0123. For `CC[C@@]1(O)C(=O)OCc2c1cc1n(c2=O)Cc2cc3ccccc3nc2-1` [Camptothecin] the value was -1.34. The value for `CC(C)(c1ccc(OCC2CO2)cc1)c1ccc(OCC2CO2)cc1` (stereo not given) was -0.00904; that for `CC(C)(C)c1cc(C=C(C#N)C#N)cc(C(C)(C)C)c1O` [Tyrphostin 9] was -0.421; that for `CCCCC/C=C\C/C=C\C/C=C\C/C=C\CCCC(=O)NCC(=O)O` [N-Arachidonoylglycine] was 0.046. With `CCCCCCCCCCCCCCCC(=O)OCC(COP(=O)([O-])OCC[N+](C)(C)C)OC(C)=O` (stereo not given), the log turned out to be 0.228. For `CCCCC/C=C\C=C\[C@H](CCCCCCCC(=O)O)OO` the value was 0.0521; for `C/C=C(/C)C(=O)O[C@H]1C(C)=C2[C@H]([C@@H]1OC(=O)CCCCCCC)[C@@](C)(OC(C)=O)C[C@H](OC(=O)CCC)[C@@]1(O)[C@H]2OC(=O)[C@@]1(C)O` [Thapsigargin], -0.223; for `CCCCC/C=C\C[C@@H](/C=C/C=C\C/C=C\CCCC(=O)O)OO`, -1.5. For `C[C@@]1(CO)[C@H](O)CC[C@@]2(C)[C@H]1CC[C@H]1C[C@@H]3C[C@@]12CC[C@]3(O)CO` [Aphidicolin] the value was -0.25; for `O[C@H]1[C@H]2[C@H](O)CCCN2C[C@H]1O` [Swainsonine], -0.038. For `c1ccc(C2CC2)c(OCC2=NCCN2)c1` [Cirazoline] the value was -0.0772. Consider `COC[C@@H]([C@H](O)[C@H](O)C(=O)NCC[C@H](C)c1nc(/C=C/C[C@@H]2O[C@]3(C[C@@H](O)[C@@H]2C)O[C@H]([C@H](C[C@H](O)[C@H](C)[C@H](O)[C@H](C)/C=C(C)/C(C)=C/C=C/C(C)=C\C#N)OC)[C@H](OP(=O)(O)O)C3(C)C)co1)N(C)C` [Calyculin A], for which the log is -1.45. The value for `COC(=O)[C@@H](N)CCCNC(=N)N[N+](=O)[O-]` was -0.308; that for `N#CC(C#N)=Cc1ccc([N+](=O)[O-])c(O)c1` [Tyrphostin AG-126] was -0.0324; that for `CCCCC/C=C\C/C=C\C/C=C\C/C=C\CCCC(=O)NCCO` [Anandamide (22:4,n-6)] was 0.195. The value for `C=C1[C@@H](C)[C@H]2[C@H](Cc3ccccc3)NC(=O)[C@]23[C@H](OC(C)=O)/C=C/[C@@](C)(O)C(=O)[C@@H](C)C/C=C/[C@H]3[C@@H]1O` [Cytochalasin D] was -0.941; that for `NCCc1c[nH]c2ccc(O)cc12` [Serotonin] was 0.0238; that for `CO[C@@H]1C[C@@H](C[C@H]2CC[C@H](C)[C@H]([C@@H](C)C(=O)O)O2)O[C@]2(O[C@](C)([C@H]3CC[C@@](C)([C@@H]4O[C@@H]([C@H]5O[C@@](O)(CO)[C@H](C)C[C@@H]5C)C[C@@H]4C)O3)C[C@H]2C)[C@@H]1C` [Nigericin] was -0.577. Consider `CCCCC/C=C\C/C=C\C/C=C\C/C=C\CCCC(=O)NCCO` [Anandamide (20:4, n-6)], for which the log is -0.065. The value for `C[C@H]1CCC/C=C/[C@@H]2C[C@H](O)C[C@H]2[C@H](O)/C=C/C(=O)O1` [Brefeldin A] was -0.7; that for `CCCCCC1OC1C/C=C\CCCCCCCC(=O)O` (stereo not given) [Leukotoxin B (12,13-EODE)] was -0.232. As for `CCCCC[C@@H](/C=C/C=C\C/C=C\C/C=C\CCCC(=O)O)OO`, the log turned out to be 0.116.

Turning to `C[C@@]12C(=O)OC(=O)[C@]1(C)[C@H]1CC[C@@H]2O1` [Cantharidin], the log was -1.47. For `CC(=O)c1c(O)c(C)c(O)c(Cc2c(O)c3c(c(C(=O)/C=C/c4ccccc4)c2O)OC(C)(C)C=C3)c1O` [Rottlerin] the value was -0.705; for `Clc1ccc(C2CC3CCC2N3)cn1` (racemic) [Epibatidine (±)], -0.132. For the compound `CC1(C)C(C=C(Cl)Cl)C1C(=O)OC(C#N)c1cccc(Oc2ccccc2)c1` (stereo not given) [Cypermethrin], the log was -0.158. The value for `CO[C@H](C/C=C\C=C\CC/C=C/C[C@H](C)/C=C/C(=C\C(=O)O)CC(=O)O)/C(C)=C\C=C(/C)C(=O)O` [Bongkrekic acid] was -0.264; that for `CC(C)[C@@H]1NC(=O)[C@H](C)OC(=O)[C@@H](C(C)C)NC(=O)[C@@H](C(C)C)OC(=O)[C@H](C(C)C)NC(=O)[C@H](C)OC(=O)[C@@H](C(C)C)NC(=O)[C@@H](C(C)C)OC(=O)[C@H](C(C)C)NC(=O)[C@H](C)OC(=O)[C@@H](C(C)C)NC(=O)[C@@H](C(C)C)OC1=O` [Valinomycin] was -0.64.
